This note sets out measurements from patent publication US10640547B2, “Immunotherapy against melanoma and other cancers” (IMMATICS BIOTECHNOLOGIES GMBH, priority 2016, dated 2020).

For the series, the system named is HLA molecules of melanoma, other tumor and normal tissue samples. Description: Identification and relative quantitation of tumor associated peptides presented on the cell surface (HLA immunoprecipitation, label-free LC-MS). More on the design: species or system human; key to Peptide Presentation (presentation score): very highly over-presented on tumors compared to a panel of normal tissues (+++); highly over-presented on tumors compared to a panel of normal tissues (++); over-presented on tumors compared to a panel of normal tissues (+). The conditions noted are these: for Peptide Presentation (presentation score): over-presentation on tumors compared to a panel of normal tissues; for relevant organs/diseases (additional tumor types on which the peptide was found) / Additional Entities (additional tumor types on which the peptide was found): over-presented on more than 5% of the measured tumor samples, or presented on more than 5% with ratio of geometric means tumor vs normal tissues larger than 3.

With “122 (YVDDFGVSV; listed as Homo sapiens) [compound 122]”, the “Peptide Presentation (presentation score)” value (from here on “Peptide Presentation”) is “++” and the “relevant organs/diseases (additional tumor types on which the peptide was found)” value (“relevant organs/diseases” for short) is reported as “AML”.
As for “123 (LLGEGIPSA; listed as Homo sapiens) [compound 123]”, the “Additional Entities (additional tumor types on which the peptide was found)” value (“Additional Entities” for short) is “HNSCC” and the “relevant organs/diseases” value is “Urinary bladder cancer, Uterine Cancer”.
“124 (FLPQKIIYL; listed as Homo sapiens) [compound 124]”: the “Additional Entities” value was “NHL” and the “relevant organs/diseases” value is reported as “GC, BRCA, OC, Uterine Cancer”.
Turning to “125 (YLFAFLNHL; listed as Homo sapiens) [compound 125]”, the “Peptide Presentation” value was “+++” and the “relevant organs/diseases” value is on record as “AML, OC, Uterine Cancer”.
Consider “127 (TLISDIEAVKA; listed as Homo sapiens) [compound 127]”, for which the “Peptide Presentation” value is on record as “+++” and the “relevant organs/diseases” value is “CLL, NHL, Urinary bladder cancer, Uterine Cancer”.
Turning to “128 (ALFPGDVDRL; listed as Homo sapiens) [compound 128]”, the “relevant organs/diseases” value is on record as “Brain Cancer, GC, CRC, PC, PrC, BRCA, Esophageal Cancer, Urinary bladder cancer”.
In the case of “129 (VLPDDLSGV; listed as Homo sapiens) [compound 129]”, the “Peptide Presentation” value is reported as “+” and the “Additional Entities” value was “HCC”.
Turning to “130 (GLVDVLYTA; listed as Homo sapiens) [compound 130]”, the “Peptide Presentation” value was “+” and the “relevant organs/diseases” value is recorded as “NSCLC, RCC, Brain Cancer, BRCA, Esophageal Cancer, Uterine Cancer”.
Consider “131 (FVDPNGKISL; listed as Homo sapiens) [compound 131]”, for which the “Peptide Presentation” value was “++” and the “Additional Entities” value is “Urinary bladder cancer, AML”.
Consider “132 (FLDASGAKL; listed as Homo sapiens) [compound 132]”, for which the “Peptide Presentation” value is “+”.
With “133 (ALDPAYTTL; listed as Homo sapiens) [compound 133]”, the “Peptide Presentation” value is given as “++” and the “relevant organs/diseases” value is given as “HCC, CLL, NHL, AML, Uterine Cancer”.
As to “134 (LLDEVLHTM; listed as Homo sapiens) [compound 134]”, the “Peptide Presentation” value is listed as “+++”.
In the case of “135 (FLDDQETRL; listed as Homo sapiens) [compound 135]”, the “Peptide Presentation” value was “+”; the “Additional Entities” value is listed as “HNSCC”; the “relevant organs/diseases” value is listed as “SCLC, CLL, OC”.
Regarding “136 (FAYDGKDYIAL; listed as Homo sapiens) [compound 136]”, the “Peptide Presentation” value was “++” and the “Additional Entities” value was “RCC, Gallbladder Cancer, Bile Duct Cancer, NHL”.
Consider “137 (ILPSNLLTV; listed as Homo sapiens) [compound 137]”, for which the “Peptide Presentation” value was “+” and the “Additional Entities” value was “HCC, CLL, Urinary bladder cancer, Uterine Cancer, AML, NHL”.
In the case of “138 (YLDKTFYNL; listed as Homo sapiens) [compound 138]”, the “Peptide Presentation” value is recorded as “+” and the “relevant organs/diseases” value is listed as “CRC, CLL, AML”.
On to “139 (AVDATVNQV; listed as Homo sapiens) [compound 139]”, for which the “Peptide Presentation” value was “+” and the “relevant organs/diseases” value is recorded as “CLL, Uterine Cancer”.
“140 (RLEAYLARV; listed as Homo sapiens) [compound 140]”: the “Peptide Presentation” value was “+”.
Take “141 (YVIDPIKGL; listed as Homo sapiens) [compound 141]”: the “Additional Entities” value is “Esophageal Cancer”.
Turning to “143 (ILDDSALYL; listed as Homo sapiens) [compound 143]”, the “Additional Entities” value is “AML” and the “relevant organs/diseases” value is “NHL, Uterine Cancer”.
For “144 (SVDEVEISV; listed as Homo sapiens) [compound 144]”, the “relevant organs/diseases” value is on record as “CLL”.
On the same count and under the same terms, as for “145 (TLPNIYVTL; listed as Homo sapiens) [compound 145]”, the entry is “NHL, AML”.
Regarding “146 (GVGPVPARA; listed as Homo sapiens) [compound 146]”, the “Peptide Presentation” value is listed as “+”; the “Additional Entities” value is recorded as “HCC, NHL”; the “relevant organs/diseases” value is reported as “PC, AML, Urinary bladder cancer”.
As for “148 (TLKDIVQTV; listed as Homo sapiens) [compound 148]”, the “Additional Entities” value is recorded as “HCC” and the “relevant organs/diseases” value was “CLL, NHL, BRCA”.
Take “149 (YLDTFALKL; listed as Homo sapiens) [compound 149]”: the “Peptide Presentation” value is on record as “+”.
As for “150 (KLFPSPLQTL; listed as Homo sapiens) [compound 150]”, the “Additional Entities” value is “Urinary bladder cancer” and the “relevant organs/diseases” value was “SCLC, RCC, PrC, Gallbladder Cancer, Bile Duct Cancer”.
Turning to “151 (FLGEPASYLYL; listed as Homo sapiens) [compound 151]”, the “Additional Entities” value is given as “HCC, BRCA, OC, Uterine Cancer” and the “relevant organs/diseases” value was “NHL”.
For the substance “154 (TLGTATFTV; listed as Homo sapiens) [compound 154]”, the “relevant organs/diseases” value is reported as “Urinary bladder cancer, Uterine Cancer”.
For “155 (GLAGFFASV; listed as Homo sapiens) [compound 155]”, the “Peptide Presentation” value is listed as “++” and the “relevant organs/diseases” value is on record as “HCC, NHL, BRCA, Esophageal Cancer, Urinary bladder cancer, Uterine Cancer”.
“156 (ALMDTDGSGKLNL; listed as Homo sapiens) [compound 156]”: the “Peptide Presentation” value was “+”.
With “157 (HLFETISQA; listed as Homo sapiens) [compound 157]”, the “Peptide Presentation” value is listed as “++” and the “relevant organs/diseases” value is on record as “Urinary bladder cancer”.
Take “158 (KLIPSIIVL; listed as Homo sapiens) [compound 158]”: the “relevant organs/diseases” value is listed as “AML”.
With “159 (TILATVPLV; listed as Homo sapiens) [compound 159]”, the “Peptide Presentation” value is on record as “++”; the “Additional Entities” value is given as “GC, HNSCC”; the “relevant organs/diseases” value is on record as “SCLC, NHL, AML, BRCA, Urinary bladder cancer, Uterine Cancer, Gallbladder Cancer, Bile Duct Cancer”.
With “160 (ALDDISESI; listed as Homo sapiens) [compound 160]”, the “Peptide Presentation” value was “+”; the “Additional Entities” value was “GC, Uterine Cancer”; the “relevant organs/diseases” value is recorded as “Esophageal Cancer”.
Consider “161 (GLCDSIITI; listed as Homo sapiens) [compound 161]”, for which the “Additional Entities” value is reported as “GC, CRC, HCC, HNSCC” and the “relevant organs/diseases” value was “NSCLC, Brain Cancer, PC, NHL, BRCA, Uterine Cancer”.
“163 (RLMANPEALKI; listed as Homo sapiens) [compound 163]”: the “Peptide Presentation” value was “++”; the “Additional Entities” value is given as “HCC, HNSCC”; the “relevant organs/diseases” value was “NHL, OC, Urinary bladder cancer, Uterine Cancer”.
Consider “164 (ALFFQLVDV; listed as Homo sapiens) [compound 164]”, for which the “Peptide Presentation” value is “++”; the “Additional Entities” value is on record as “HCC, HNSCC”; the “relevant organs/diseases” value is given as “SCLC, RCC, AML, BRCA”.
Consider “165 (ALIEVLQPLI; listed as Homo sapiens) [compound 165]”, for which the “Peptide Presentation” value is recorded as “++”; the “Additional Entities” value is reported as “GC, HNSCC”; the “relevant organs/diseases” value is given as “Urinary bladder cancer”.
For the substance “166 (SIIPPLFTV; listed as Homo sapiens) [compound 166]”, the “Peptide Presentation” value was “++”; the “Additional Entities” value is recorded as “HCC”; the “relevant organs/diseases” value is listed as “SCLC, PC, AML, BRCA, OC, Urinary bladder cancer”.
In the case of “167 (KVLGDVIEV; listed as Homo sapiens) [compound 167]”, the “relevant organs/diseases” value was “RCC, Brain Cancer”.
On to “168 (KLLAATLLL; listed as Homo sapiens) [compound 168]”, for which the “Peptide Presentation” value is “+”; the “Additional Entities” value is on record as “HCC”; the “relevant organs/diseases” value was “RCC, AML, Esophageal Cancer”.
As to “169 (TLLESIQHV; listed as Homo sapiens) [compound 169]”, the “Peptide Presentation” value is “+”; the “Additional Entities” value was “HNSCC”; the “relevant organs/diseases” value is listed as “SCLC, Brain Cancer, CRC, NHL, AML, BRCA, OC”.
